Experimental data as given in patent US20250084044A1, “PROTOPORPHYRINOGEN OXIDASE INHIBITORS” (Enko Chem, Inc., priority 2022, published 2025).
Like-named read-outs stand apart in the source and are kept apart here. Some of these results come from one statement about several compounds together.

Biological target: T1, Amaranthus tuberculantum Protoporphyrinogen Oxidase (AmPPO) (Amaranthus tuberculatus, UniProt Q0NZW9)
T1 construct: fused on or other part: C-terminal His tag (pET28b vector)
T1 sequence (Q0NZW9 1-534): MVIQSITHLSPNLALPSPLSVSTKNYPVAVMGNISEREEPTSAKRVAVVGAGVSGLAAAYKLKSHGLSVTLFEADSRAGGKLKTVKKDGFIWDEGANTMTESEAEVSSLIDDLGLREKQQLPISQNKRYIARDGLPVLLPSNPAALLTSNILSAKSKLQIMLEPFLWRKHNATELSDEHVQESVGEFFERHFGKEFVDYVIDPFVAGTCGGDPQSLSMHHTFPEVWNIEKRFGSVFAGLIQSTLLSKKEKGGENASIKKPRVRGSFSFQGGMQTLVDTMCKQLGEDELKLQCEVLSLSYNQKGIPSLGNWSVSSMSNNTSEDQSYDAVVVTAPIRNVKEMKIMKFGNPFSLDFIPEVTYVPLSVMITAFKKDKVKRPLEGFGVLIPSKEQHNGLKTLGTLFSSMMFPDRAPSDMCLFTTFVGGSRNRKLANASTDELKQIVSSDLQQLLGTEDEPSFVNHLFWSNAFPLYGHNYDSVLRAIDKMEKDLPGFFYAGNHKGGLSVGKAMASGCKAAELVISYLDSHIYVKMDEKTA
Assay: PPO in vitro assay (AmPPO)
Format: biochemical

Row | SMILES | IC50 [nM] | IC50 (Example 17b) [nM]
1 | O=C(O)[C@@H]1CS(=O)(=O)CCN1C(=O)CN1C(=O)C(F)(F)Oc2cc(F)c(-c3c(F)c(F)c(F)c(F)c3F)cc21 [Compound 120, (R)-4-(2-(2,2,7-trifluoro-3-oxo-6-(perfluorophenyl)-2,3-dihydro-4H-benzo[b][1,4]oxazin-4-yl)acetyl)thiomorpholine-3-carboxylic acid 1,1-dioxide] | < 100 | < 100
2 | COC(=O)[C@@H](C)N1C(=O)C(F)(F)Oc2cc(F)c(-c3c(F)c(F)c(F)c(F)c3F)cc21 [Compound 8, methyl (R)-2-(2,2,7-trifluoro-3-oxo-6-(perfluorophenyl)-2,3-dihydro-4H-benzo[b][1,4]oxazin-4-yl)propanoate] | < 100 | < 100
3 | COC(=O)[C@@H](C)N1C(=O)COc2ccc(-c3c(F)c(F)c(F)c(F)c3F)cc21 [Compound 42, methyl (R)-2-(3-oxo-6-(perfluorophenyl)-2,3-dihydro-4H-benzo[b][1,4]oxazin-4-yl)propanoate] | < 100 | < 100
4 | C[C@@H](C(=O)O)N1C(=O)C(F)(F)Oc2cc(F)c(-c3c(F)cc(F)c(F)c3F)cc21 [Compound 78, (2S)-2-(2,2,7-trifluoro-3-oxo-6-(2,3,4,6-tetrafluorophenyl)-2,3-dihydro-4H-benzo[b][1,4]oxazin-4-yl)propanoic acid] | < 100 | < 100
5 | COC(=O)C(C)N1C(=O)C(F)(F)Oc2cc(Cl)c(-c3c(F)c(F)c(F)c(F)c3F)cc21 (stereo in doubt) [Compound 171, methyl (R)-2-(7-chloro-2,2-difluoro-3-oxo-6-(perfluorophenyl)-2,3-dihydro-4H-benzo[b][1,4]oxazin-4-yl)propanoate] | – | < 100
6 | CC(C(=O)O)N1C(=O)C(F)(F)Oc2cc(Cl)c(-c3c(F)c(F)c(F)c(F)c3F)cc21 (stereo in doubt) [Compound 173, (R)-2-(7-chloro-2,2-difluoro-3-oxo-6-(perfluorophenyl)-2,3-dihydro-4H-benzo[b][1,4]oxazin-4-yl)propanoic acid] | – | < 100
7 | COC(=O)Cc1ccc(CN2C(=O)C(F)(F)Oc3cc(F)c(-c4c(F)c(F)c(F)c(F)c4F)cc32)cc1 [Compound 156, methyl 2-(4-((2,2,7-trifluoro-3-oxo-6-(perfluorophenyl)-2,3-dihydro-4H-benzo[b][1,4]oxazin-4-yl)methyl)phenyl)acetate] | – | < 100
8 | O=C(O)c1cccc(CN2C(=O)C(F)(F)Oc3cc(F)c(-c4c(F)c(F)c(F)c(F)c4F)cc32)c1 [Compound 25, 3-((2,2,7-trifluoro-3-oxo-6-(perfluorophenyl)-2,3-dihydro-4H-benzo[b][1,4]oxazin-4-yl)methyl)benzoic acid] | < 100 | < 100
9 | CC(C)C[C@@H](C(=O)O)N1C(=O)C(F)(F)Oc2cc(F)c(-c3c(F)c(F)c(F)c(F)c3F)cc21 [Compound 124, (S)-4-methyl-2-(2,2,7-trifluoro-3-oxo-6-(perfluorophenyl)-2,3-dihydro-4H-benzo[b][1,4]oxazin-4-yl)pentanoic acid] | < 100 | < 100
10 | COC(=O)[C@@H]1CNCCN1C(=O)CN1C(=O)C(F)(F)Oc2cc(F)c(-c3c(F)c(F)c(F)c(F)c3F)cc21 [Compound 145, methyl (S)-1-(2-(2,2,7-trifluoro-3-oxo-6-(perfluorophenyl)-2,3-dihydro-4H-benzo[b][1,4]oxazin-4-yl)acetyl)piperazine-2-carboxylate] | < 100 | < 100
11 | O=C(O)CN1C(=O)C(F)(F)Oc2ccc(-c3c(F)c(F)c(F)c(F)c3F)cc21 [Compound 30, 2-(2,2-difluoro-3-oxo-6-(perfluorophenyl)-2,3-dihydro-4H-benzo[b][1,4]oxazin-4-yl)acetic acid] | < 100 | < 100
12 | COC(=O)C(=O)CN1C(=O)C(F)(F)Oc2cc(F)c(-c3c(F)c(F)c(F)c(F)c3F)cc21 [Compound 101, methyl 2-oxo-3-(2,2,7-trifluoro-3-oxo-6-(perfluorophenyl)-2,3-dihydro-4H-benzo[b][1,4]oxazin-4-yl)propanoate] | < 100 | < 100
13 | COC(=O)[C@@H]1CSCCN1C(=O)CN1C(=O)C(F)(F)Oc2cc(F)c(-c3c(F)c(F)c(F)c(F)c3F)cc21 [Compound 107, methyl (R)-4-(2-(2,2,7-trifluoro-3-oxo-6-(perfluorophenyl)-2,3-dihydro-4H-benzo[b][1,4]oxazin-4-yl)acetyl)thiomorpholine-3-carboxylate] | < 100 | < 100
14 | O=C(O)CCN1C(=O)C(F)(F)Oc2cc(F)c(-c3c(F)c(F)c(F)c(F)c3F)cc21 [Compound 46] | < 100 | < 100
15 | O=C(O)CN1C(=O)C2(CC2)Oc2cc(F)c(-c3c(F)c(F)c(F)c(F)c3F)cc21 [Compound 23, 2-(7-fluoro-3-oxo-6-(perfluorophenyl)spiro[benzo[b][1,4]oxazine-2,1′-cyclopropan]-4(3H)-yl)acetic acid] | – | < 1000
16 | COC(=O)CN1C(=O)C(F)(F)Oc2ccc(-c3c(F)c(F)c(F)c(F)c3F)cc21 [Compound 29, methyl 2-(2,2-difluoro-3-oxo-6-(perfluorophenyl)-2,3-dihydro-4H-benzo[b][1,4]oxazin-4-yl)acetate] | < 100 | < 100
17 | O=C(O)c1cccc(CCN2C(=O)C(F)(F)Oc3cc(F)c(-c4c(F)c(F)c(F)c(F)c4F)cc32)c1 [Compound 143, 3-(2-(2,2,7-trifluoro-3-oxo-6-(perfluorophenyl)-2,3-dihydro-4H-benzo[b][1,4]oxazin-4-yl)ethyl)benzoic acid] | < 100 | < 100
18 | CO[C@@H](C(=O)O)N1C(=O)C(F)(F)Oc2cc(F)c(-c3c(F)c(F)c(F)c(F)c3F)cc21 [Compound 187, (S)-2-methoxy-2-(2,2,7-trifluoro-3-oxo-6-(perfluorophenyl)-2,3-dihydro-4H-benzo[b][1,4]oxazin-4-yl)acetic acid] | – | < 100
19 | COC(=O)[C@H]1CCCN1C(=O)CN1C(=O)C(F)(F)Oc2cc(F)c(-c3c(F)c(F)c(F)c(F)c3F)cc21 [Compound 72, methyl (2-(2,2,7-trifluoro-3-oxo-6-(perfluomphenyl)-2,3-dihydro-4H-benzo[b][1,4]oxazin-4-yl)acetyl)-D-prolinate] | < 100 | < 100
20 | COC(=O)c1cccc(CN2C(=O)C(F)(F)Oc3cc(F)c(-c4c(F)c(F)c(F)c(F)c4F)cc32)c1 [Compound 24, methyl 3-((2,2,7-trifluoro-3-oxo-6-(perfluorophenyl)-2,3-dihydro-4H-benzo[b][1,4]oxazin-4-yl)methyl)benzoate] | < 100 | < 100
21 | COC(=O)[C@@H](C)N1C(=O)C(F)(F)Oc2cc(F)c(-c3c(F)c(F)cc(F)c3F)cc21 [Compound 67, methyl (R)-2-(2,2,7-trifluoro-3-oxo-6-(2,3,5,6-tetrafluorophenyl)-2,3-dihydro-4H-benzo[b][1,4]oxazin-4-yl)propanoate] | < 100 | < 100
22 | COC(=O)[C@@H](C)N1C(=O)C(F)(F)Oc2cc(F)c(-c3c(F)c(F)c(OC)c(F)c3F)cc21 [Compound 112, methyl (R)-2-(2,2,7-trifluoro-3-oxo-6-(2,3,5,6-tetrafluoro-4-methoxyphenyl)-2,3-dihydro-4H-benzo[b][1,4]oxazin-4-yl)propanoate] | < 100 | < 100
23 | O=C(O)c1cccc(N2C(=O)C(F)(F)Oc3cc(F)c(-c4c(F)c(F)c(F)c(F)c4F)cc32)c1 [Compound 56, 3-(2,2,7-trifluoro-3-oxo-6-(perfluorophenyl)-2,3-dihydro-4H-benzo[b][1,4]oxazin-4-yl)benzoic acid] | < 100 | < 100
24 | COC(=O)CN1C(=O)C(F)(F)Oc2cc(F)c(-c3c(F)c(F)c(F)c(F)c3F)cc21 [Compound 1, methyl 2-(2,2,7-trifluoro-3-oxo-6-(perfluorophenyl)-2,3-dihydro-4H-benzo[b][1,4]oxazin-4-yl)acetate] | < 100 | < 100
25 | COC(=O)CNC(=O)CN1C(=O)C(F)(F)Oc2cc(F)c(-c3c(F)c(F)c(F)c(F)c3F)cc21 [Compound 91, methyl (2-(2,2,7-trifluoro-3-oxo-6-(perfluorophenyl)-2,3-dihydro-4H-benzo[b][1,4]oxazin-4-yl)acetyl)glycinate] | < 100 | < 100
26 | COC(=O)[C@H](OC)N1C(=O)C(F)(F)Oc2cc(F)c(-c3c(F)c(F)c(F)c(F)c3F)cc21 [Compound 185, methyl (S)-2-methoxy-2-(2,2,7-trifluoro-3-oxo-6-(perfluorophenyl)-2,3-dihydro-4H-benzo[b][1,4]oxazin-4-yl)acetate] | – | < 100
27 | COC(=O)c1ccc(CCN2C(=O)C(F)(F)Oc3cc(F)c(-c4c(F)c(F)c(F)c(F)c4F)cc32)cc1 [Compound 128, methyl 4-(2-(2,2,7-trifluoro-3-oxo-6-(perfluorophenyl)-2,3-dihydro-4H-benzo[b][1,4]oxazin-4-yl)ethyl)benzoate] | < 100 | < 100
28 | O=C(O)CCNC(=O)CN1C(=O)C(F)(F)Oc2cc(F)c(-c3c(F)c(F)c(F)c(F)c3F)cc21 [Compound 95, 3-(2-(2,2,7-trifluoro-3-oxo-6-(perfluorophenyl)-2,3-dihydro-4H-benzo[b][1,4]oxazin-4-yl)acetamido)propanoic acid] | < 100 | < 100
